Paper PMC8466468
No constants are given. Whether binding was seen depends on the method and setting. In cells and extracts the contact can be indirect. Some results given as binding are weak or reduced against the parent protein; the word gives no strength.

The chains behind the UniProt entries cited, without tags or fusion partners. Where a name states a change or a piece, a line headed by the entry shows the natural chain unless it says otherwise.
UniProt Q8N6T7: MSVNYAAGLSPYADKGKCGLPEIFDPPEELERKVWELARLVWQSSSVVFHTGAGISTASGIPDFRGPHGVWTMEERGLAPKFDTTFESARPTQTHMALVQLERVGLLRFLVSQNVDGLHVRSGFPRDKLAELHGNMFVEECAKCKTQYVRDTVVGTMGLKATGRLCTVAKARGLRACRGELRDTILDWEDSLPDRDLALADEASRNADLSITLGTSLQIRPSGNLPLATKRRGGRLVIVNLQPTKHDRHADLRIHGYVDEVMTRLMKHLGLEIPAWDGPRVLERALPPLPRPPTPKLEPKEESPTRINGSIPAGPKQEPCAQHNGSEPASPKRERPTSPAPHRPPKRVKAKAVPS
UniProt P53396: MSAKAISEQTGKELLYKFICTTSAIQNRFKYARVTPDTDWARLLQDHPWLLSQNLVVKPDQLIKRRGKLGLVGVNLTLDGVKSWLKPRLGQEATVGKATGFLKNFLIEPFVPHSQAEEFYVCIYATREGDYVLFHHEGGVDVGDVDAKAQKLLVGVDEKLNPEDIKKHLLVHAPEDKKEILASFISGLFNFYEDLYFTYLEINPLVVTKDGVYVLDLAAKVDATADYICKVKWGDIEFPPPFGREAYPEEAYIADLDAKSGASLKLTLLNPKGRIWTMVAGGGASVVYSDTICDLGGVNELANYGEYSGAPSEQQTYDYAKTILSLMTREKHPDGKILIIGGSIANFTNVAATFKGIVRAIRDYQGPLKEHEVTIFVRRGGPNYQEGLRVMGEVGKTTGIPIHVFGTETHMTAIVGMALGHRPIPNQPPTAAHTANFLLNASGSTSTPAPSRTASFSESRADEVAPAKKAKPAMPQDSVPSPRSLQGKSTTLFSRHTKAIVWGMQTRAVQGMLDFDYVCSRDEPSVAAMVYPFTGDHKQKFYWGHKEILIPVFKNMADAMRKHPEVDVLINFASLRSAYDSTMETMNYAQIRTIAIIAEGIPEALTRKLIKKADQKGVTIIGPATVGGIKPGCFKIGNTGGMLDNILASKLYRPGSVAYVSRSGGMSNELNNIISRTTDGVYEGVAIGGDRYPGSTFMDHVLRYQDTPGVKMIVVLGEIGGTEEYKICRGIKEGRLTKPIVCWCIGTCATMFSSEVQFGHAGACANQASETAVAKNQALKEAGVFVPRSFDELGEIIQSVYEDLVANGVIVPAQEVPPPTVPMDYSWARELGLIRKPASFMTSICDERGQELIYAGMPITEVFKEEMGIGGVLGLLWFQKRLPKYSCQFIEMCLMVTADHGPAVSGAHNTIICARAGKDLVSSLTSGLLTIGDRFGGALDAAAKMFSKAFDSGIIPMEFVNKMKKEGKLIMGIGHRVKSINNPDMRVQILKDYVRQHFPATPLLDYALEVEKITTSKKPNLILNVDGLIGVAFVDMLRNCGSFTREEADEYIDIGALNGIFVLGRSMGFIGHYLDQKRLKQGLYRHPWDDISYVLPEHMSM

What was measured:
Test in all cases: co-IP; Flag-immunoprecipitation with anti-FLAG M2 affinity gel from 2 mg total protein of U2OS lysate; buffer A (50 mM Tris-HCl pH 7.4, 250 mM NaCl, 0.5% Triton X-100, 10% glycerol); Western blot
[1] = target: Flag-tagged SIRT6 G60A (human) (UniProt Q8N6T7)
[2] = target: Flag-tagged wild-type SIRT6 (human) (UniProt Q8N6T7)
[3] = target: Flag-tagged SIRT6 R65A (human) (UniProt Q8N6T7)
[4] = target: Flag-tagged SIRT6 S56Y (human) (UniProt Q8N6T7)
[5] = target: Flag-tagged SIRT6 H133Y (human) (UniProt Q8N6T7)

binding [1]: binds | binding [2]: binds | binding [3]: binds | binding [4]: binds | binding [5]: binds
Substance: ATP citrate lyase (ACLY) (from UniProt P53396 1-1101) (enzyme)
